Experimental data: publication PMC7681083
Results are given in words; binding and its absence hold for the method and conditions named. Binding seen in cells or lysates may run through a third protein. Some results given as binding are weak or reduced against the parent protein; the word gives no strength.

Chains of the proteins cited; added tags and fusions are not shown.
UniProt Q04207: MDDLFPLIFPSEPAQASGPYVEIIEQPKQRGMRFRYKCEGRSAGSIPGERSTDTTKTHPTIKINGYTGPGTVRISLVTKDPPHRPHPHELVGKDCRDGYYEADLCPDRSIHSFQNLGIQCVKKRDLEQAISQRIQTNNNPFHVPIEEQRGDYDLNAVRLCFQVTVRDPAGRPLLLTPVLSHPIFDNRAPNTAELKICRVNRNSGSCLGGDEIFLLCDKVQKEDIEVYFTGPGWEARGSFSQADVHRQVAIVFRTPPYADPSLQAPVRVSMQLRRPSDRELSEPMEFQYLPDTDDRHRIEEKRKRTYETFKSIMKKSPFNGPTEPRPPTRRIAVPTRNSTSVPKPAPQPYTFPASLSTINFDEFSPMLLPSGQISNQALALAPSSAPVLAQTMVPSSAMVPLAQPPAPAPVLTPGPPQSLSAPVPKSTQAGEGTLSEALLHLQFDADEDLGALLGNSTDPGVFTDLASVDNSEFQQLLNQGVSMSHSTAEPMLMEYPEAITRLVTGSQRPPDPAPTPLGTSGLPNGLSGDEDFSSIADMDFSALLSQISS

Target: NF-κB p65 (mouse) (UniProt Q04207)
Test: co-IP; murine Rxrα and p65; cells, constructs and precipitated protein not told

B1: retinoid X receptor α (Rxrα) (protein, UniProt P28700 1-467)
chain: MDTKHFLPLDFSTQVNSSSLNSPTGRGSMAVPSLHPSLGPGIGSPLGSPGQLHSPISTLSSPINGMGPPFSVISSPMGPHSMSVPTTPTLGFGTGSPQLNSPMNPVSSTEDIKPPLGLNGVLKVPAHPSGNMASFTKHICAICGDRSSGKHYGVYSCEGCKGFFKRTVRKDLTYTCRDNKDCLIDKRQRNRCQYCRYQKCLAMGMKREAVQEERQRGKDRNENEVESTSSANEDMPVEKILEAELAVEPKTETYVEANMGLNPSSPNDPVTNICQAADKQLFTLVEWAKRIPHFSELPLDDQVILLRAGWNELLIASFSHRSIAVKDGILLATGLHVHRNSAHSAGVGAIFDRVLTELVSKMRDMQMDKTELGCLRAIVLFNPDSKGLSNPAEVEALREKVYASLEAYCKHKYPEQPGRFAKLLLRLPALRSIGLKCLEHLFFFKLIGDTPIDTFLMEMLEAPHQAT
binding: binds
